Reference: article doi:10.1101/2023.05.28.542642
These are yes or no findings as the source states them, for the method shown.

By UniProt entry, the sequences of proteins in these tests, tags left out. Where a name states a change or a piece, a line headed by the entry shows the natural chain unless it says otherwise.
UniProt P21707, whole entry, looked up, stated change not applied: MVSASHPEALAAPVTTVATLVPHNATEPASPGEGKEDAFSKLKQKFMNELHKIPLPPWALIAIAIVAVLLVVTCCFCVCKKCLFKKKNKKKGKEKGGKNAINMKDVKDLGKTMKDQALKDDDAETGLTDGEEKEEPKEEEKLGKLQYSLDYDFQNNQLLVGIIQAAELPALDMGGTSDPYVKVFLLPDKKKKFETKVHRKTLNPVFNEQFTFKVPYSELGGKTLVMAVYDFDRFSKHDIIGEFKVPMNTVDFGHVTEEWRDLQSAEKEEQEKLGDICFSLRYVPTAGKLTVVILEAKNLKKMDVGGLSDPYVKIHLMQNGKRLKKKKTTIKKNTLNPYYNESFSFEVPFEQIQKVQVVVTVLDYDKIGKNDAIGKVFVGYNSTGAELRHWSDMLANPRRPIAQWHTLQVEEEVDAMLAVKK

Target: C2AB domain of synaptotagmin-1 (aa 97-421) labeled with Alexa Fluor 488 at S342C (Rattus norvegicus) (UniProt P21707)
Assay: fluorescence polarisation

**Q.** How did the binding turn out when KKKKKRFSFKKSFKLSGFSFKKNKK [MARCKS effector domain (aa 151-175)] was run?
**A.** no binding
